For this assay, the target named is T1, FLAG-mGCNA (mouse Germ Cell Nuclear Acidic protein, FLAG-tagged) (mouse).
T1 sequence: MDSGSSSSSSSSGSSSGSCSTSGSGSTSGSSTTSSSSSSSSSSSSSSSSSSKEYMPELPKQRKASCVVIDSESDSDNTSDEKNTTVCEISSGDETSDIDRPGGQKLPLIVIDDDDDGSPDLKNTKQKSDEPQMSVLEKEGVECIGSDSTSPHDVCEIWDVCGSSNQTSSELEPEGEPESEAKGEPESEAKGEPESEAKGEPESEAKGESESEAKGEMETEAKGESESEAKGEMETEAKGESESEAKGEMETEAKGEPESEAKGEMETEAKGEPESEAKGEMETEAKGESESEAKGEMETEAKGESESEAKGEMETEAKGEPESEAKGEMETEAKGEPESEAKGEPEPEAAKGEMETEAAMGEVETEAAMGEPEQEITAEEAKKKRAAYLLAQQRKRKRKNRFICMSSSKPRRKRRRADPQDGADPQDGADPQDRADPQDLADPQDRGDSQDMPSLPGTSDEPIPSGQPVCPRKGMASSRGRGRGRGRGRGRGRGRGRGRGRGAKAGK
Put plainly: co-IP; anti-FLAG magnetic beads on the soluble (chromatin-free) fraction of 3T3 cells transiently transfected with FLAG-mGCNA; Benzonase and DNAse I added; binding buffer 20 mM Tris-HCl pH 7.4, 150 mM NaCl; overnight at 4°C; western blot. On the technique in general: In western blotting, separated proteins are transferred to a membrane and probed.

Results are given in words; binding and its absence hold for the method and conditions named. In cells and extracts the contact can be indirect. Binding calls can cover weak binding; strength is not graded here. Where a sequence is shown, tags or fusion partners need not be part of it.

Regarding “Topoisomerase 2 (TOP2) (mouse (endogenous in NIH3T3)) (enzyme)”, the binding entry is given as “binds”.

The record behind these values is PMC10250205.
